For 3 molecules, binding results are on record in paper PMC12268348.

Results are given in words; binding and its absence hold for the method and conditions named. Binding seen in cells or lysates may run through a third protein. Binding can be weak; no strength is given.

For test [1], the target named is T1, PPARγ coactivator PGC-1α (rat (endogenous in primary FLSs of SD rats)) (UniProt Q9QYK2).
T1 sequence: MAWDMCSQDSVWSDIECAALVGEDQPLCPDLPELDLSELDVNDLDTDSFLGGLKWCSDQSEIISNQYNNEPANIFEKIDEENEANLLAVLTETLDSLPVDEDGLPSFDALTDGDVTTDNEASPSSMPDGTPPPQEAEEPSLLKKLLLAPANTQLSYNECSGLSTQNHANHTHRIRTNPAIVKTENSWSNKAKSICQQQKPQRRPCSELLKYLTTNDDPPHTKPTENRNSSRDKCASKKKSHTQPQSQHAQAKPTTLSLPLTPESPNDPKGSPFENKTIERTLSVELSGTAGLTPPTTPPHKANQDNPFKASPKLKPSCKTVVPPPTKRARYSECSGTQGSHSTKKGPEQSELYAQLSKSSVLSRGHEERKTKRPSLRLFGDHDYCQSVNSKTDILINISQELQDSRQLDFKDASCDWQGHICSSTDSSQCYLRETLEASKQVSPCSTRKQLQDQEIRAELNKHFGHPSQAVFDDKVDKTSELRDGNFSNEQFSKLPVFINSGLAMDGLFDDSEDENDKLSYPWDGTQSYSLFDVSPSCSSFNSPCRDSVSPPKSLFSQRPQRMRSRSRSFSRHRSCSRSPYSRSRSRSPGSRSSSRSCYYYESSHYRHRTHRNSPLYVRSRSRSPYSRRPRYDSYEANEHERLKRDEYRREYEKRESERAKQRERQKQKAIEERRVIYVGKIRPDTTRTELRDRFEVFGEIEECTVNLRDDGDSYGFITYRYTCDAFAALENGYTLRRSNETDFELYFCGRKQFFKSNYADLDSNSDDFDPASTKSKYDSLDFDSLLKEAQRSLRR
Briefly: co-IP; endogenous proteins in lysates of rat primary FLSs (OE/KD PPARγ-treated); IP/Co-IP lysis buffer; antibody with Protein A/G magnetic beads, 4 °C overnight; washed thrice with lysis buffer; Western blot; IgG control. (In western blotting, separated proteins are transferred to a membrane and probed.)

For test [2], the target named is T2, Annexin A1 (ANXA1) in chondrocytes (rat (in primary chondrocytes of SD rats)) (UniProt P07150).
T2 sequence: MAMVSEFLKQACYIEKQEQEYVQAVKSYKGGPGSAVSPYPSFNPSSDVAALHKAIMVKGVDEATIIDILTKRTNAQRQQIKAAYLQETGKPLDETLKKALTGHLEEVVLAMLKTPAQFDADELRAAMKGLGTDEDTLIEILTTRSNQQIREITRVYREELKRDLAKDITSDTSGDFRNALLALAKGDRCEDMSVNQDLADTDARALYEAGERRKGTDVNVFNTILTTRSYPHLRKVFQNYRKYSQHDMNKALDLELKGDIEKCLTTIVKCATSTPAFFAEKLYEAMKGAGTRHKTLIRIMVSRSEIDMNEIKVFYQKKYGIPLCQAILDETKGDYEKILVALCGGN
The experiment in a line: co-IP; lysates of rat primary chondrocytes; IP with anti-ANXA1 and anti-ERK antibodies, Protein A/G magnetic beads, 4 °C overnight; Western blot.

Test [3] has as its target STAM1 (ESCRT-0 subunit), signal-transducing adaptor molecule 1 (rat (endogenous in primary FLSs of SD rats)). Briefly: co-IP; endogenous proteins in lysates of rat primary FLSs (OE/KD PPARγ-treated); IP/Co-IP lysis buffer; antibody with Protein A/G magnetic beads, 4 °C overnight; washed thrice with lysis buffer; Western blot; IgG control.

With “STAM1 (ESCRT-0 subunit), signal-transducing adaptor molecule 1”, the binding entry in test [1] is “binds”.

Take “extracellular signal-regulated kinase (ERK) (enzyme)”: the binding entry in test [2] is reported as “binds”.

B1: PPARγ coactivator PGC-1α (protein, UniProt Q9QYK2 1-796)
chain: MAWDMCSQDSVWSDIECAALVGEDQPLCPDLPELDLSELDVNDLDTDSFLGGLKWCSDQSEIISNQYNNEPANIFEKIDEENEANLLAVLTETLDSLPVDEDGLPSFDALTDGDVTTDNEASPSSMPDGTPPPQEAEEPSLLKKLLLAPANTQLSYNECSGLSTQNHANHTHRIRTNPAIVKTENSWSNKAKSICQQQKPQRRPCSELLKYLTTNDDPPHTKPTENRNSSRDKCASKKKSHTQPQSQHAQAKPTTLSLPLTPESPNDPKGSPFENKTIERTLSVELSGTAGLTPPTTPPHKANQDNPFKASPKLKPSCKTVVPPPTKRARYSECSGTQGSHSTKKGPEQSELYAQLSKSSVLSRGHEERKTKRPSLRLFGDHDYCQSVNSKTDILINISQELQDSRQLDFKDASCDWQGHICSSTDSSQCYLRETLEASKQVSPCSTRKQLQDQEIRAELNKHFGHPSQAVFDDKVDKTSELRDGNFSNEQFSKLPVFINSGLAMDGLFDDSEDENDKLSYPWDGTQSYSLFDVSPSCSSFNSPCRDSVSPPKSLFSQRPQRMRSRSRSFSRHRSCSRSPYSRSRSRSPGSRSSSRSCYYYESSHYRHRTHRNSPLYVRSRSRSPYSRRPRYDSYEANEHERLKRDEYRREYEKRESERAKQRERQKQKAIEERRVIYVGKIRPDTTRTELRDRFEVFGEIEECTVNLRDDGDSYGFITYRYTCDAFAALENGYTLRRSNETDFELYFCGRKQFFKSNYADLDSNSDDFDPASTKSKYDSLDFDSLLKEAQRSLRR
In the case of B1, the binding entry in test [3] is listed as “binds”.
